Laboratory results as given in paper PMC2373891.
Results are given in words; binding and its absence hold for the method and conditions named. For some of these results: Binding seen in cells or lysates may run through a third protein. Some entries that bind do so weakly or less than the wild type. For some of these results: Tags and fused reporters may be left off the sequences shown. Blank lines part the entries; values can stand above or below the molecule they belong to.

Amino acid sequences for entries named in this document (tags omitted). A change or cut given only in a name is not applied to a line headed by its entry.
UniProt P09083: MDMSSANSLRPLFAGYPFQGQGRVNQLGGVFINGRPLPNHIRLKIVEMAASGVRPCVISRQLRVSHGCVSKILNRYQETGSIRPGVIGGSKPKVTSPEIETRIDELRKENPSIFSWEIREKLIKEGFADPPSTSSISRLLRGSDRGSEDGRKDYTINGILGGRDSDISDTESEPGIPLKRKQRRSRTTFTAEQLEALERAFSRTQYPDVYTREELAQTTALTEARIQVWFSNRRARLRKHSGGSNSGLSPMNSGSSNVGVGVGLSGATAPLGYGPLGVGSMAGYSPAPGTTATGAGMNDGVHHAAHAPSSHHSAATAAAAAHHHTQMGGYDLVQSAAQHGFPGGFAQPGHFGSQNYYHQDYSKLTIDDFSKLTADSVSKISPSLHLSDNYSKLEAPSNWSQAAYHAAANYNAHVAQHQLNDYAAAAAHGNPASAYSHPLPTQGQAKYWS

Tests used:
[1] = molecular target: T1, EN protein in extracts of HS-EN embryos (Drosophila) (UniProt P02836); assay: co-IP; 35S-labelled in vitro translated protein with protein extracts from HS-GsbN or HS-EN embryos; precipitated with anti-GsbN or anti-EN (4F11) antibody
T1 sequence: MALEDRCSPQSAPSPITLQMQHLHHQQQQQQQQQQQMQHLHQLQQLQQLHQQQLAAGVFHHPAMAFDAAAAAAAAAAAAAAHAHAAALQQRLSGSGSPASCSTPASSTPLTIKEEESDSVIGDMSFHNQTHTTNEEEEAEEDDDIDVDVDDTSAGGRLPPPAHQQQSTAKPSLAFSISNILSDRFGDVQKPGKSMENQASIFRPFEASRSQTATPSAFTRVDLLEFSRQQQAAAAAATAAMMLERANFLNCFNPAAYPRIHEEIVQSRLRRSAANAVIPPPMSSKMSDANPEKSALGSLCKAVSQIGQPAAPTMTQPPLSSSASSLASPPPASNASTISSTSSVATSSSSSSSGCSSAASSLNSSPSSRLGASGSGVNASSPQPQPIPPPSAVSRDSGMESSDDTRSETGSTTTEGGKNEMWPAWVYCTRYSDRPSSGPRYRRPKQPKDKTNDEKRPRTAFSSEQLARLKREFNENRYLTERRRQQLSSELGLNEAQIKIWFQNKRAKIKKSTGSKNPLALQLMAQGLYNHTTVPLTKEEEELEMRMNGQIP

[2] = molecular target: T2, GST-EN fusion protein (Drosophila) (UniProt P02836); assay: pull-down; GST or GST fusion on glutathione agarose beads; 35S-labelled in vitro translated protein, 1 hr at room temperature in TBST with 0.5% Triton X-100 and 0.2% BSA; washes with 1% Triton X-100 and 250, 500, 750 mM and 1 M NaCl; autoradiography; only the target purified
T2 sequence: T1 sequence

[3] = molecular target: T3, full-length Engrailed protein fused to the Gal4 DNA binding domain (pGBT9-EN) (Drosophila) (UniProt P02836); assay: two-hybrid; beta-galactosidase staining after mating of the EN-FL (pGBT9) strain with strains holding GsbN-FL or GsbN-Cter (pGAD)
T3 sequence: T1 sequence

[4] = molecular target: T3, full-length Engrailed protein fused to the Gal4 DNA binding domain (pGBT9-EN) (Drosophila); assay: two-hybrid; histidine selection on -W-L-H medium with increasing amounts of 3AT; empty pGBT9 and pGAD as negative controls
[5] = molecular target: GsbN protein in extracts of HS-GsbN embryos (Drosophila) (UniProt P09083); assay: co-IP; 35S-labelled in vitro translated protein with protein extracts from HS-GsbN or HS-EN embryos; precipitated with anti-GsbN or anti-EN (4F11) antibody
[6] = molecular target: GST-GsbN fusion protein (Drosophila) (UniProt P09083); assay: pull-down; GST or GST fusion on glutathione agarose beads; 35S-labelled in vitro translated protein, 1 hr at room temperature in TBST with 0.5% Triton X-100 and 0.2% BSA; washes with 1% Triton X-100 and 250, 500, 750 mM and 1 M NaCl; autoradiography; only the target purified

- binding [1]: binds
- binding [2]: binds
Molecule: 35S-labelled in vitro translated full-length GsbN protein (from UniProt P09083 1-449)

- binding [3]: binds
- binding [4]: binds
Molecule: C-terminal region of GsbN (aa 173 to aa 449) fused to the Gal4 activation domain (pGAD) (from UniProt P09083 173-449) (domain or fragment)

- binding [3]: binds
Molecule: full-length GsbN fused to the Gal4 activation domain (pGAD) (from UniProt P09083 1-449)

- binding [5]: binds
- binding [6]: binds
B1: 35S-labelled in vitro translated full-length EN protein (protein, UniProt P02836 1-552)
chain: T1 sequence
modifications: 35S-labelled
